In EP1985624A2 (Bayer Schering Pharma Aktiengesellschaft, priority 2007, dated 2008) one finds step yield data, which are given here for two substances.

This series is described as follows: general procedure: Fmoc solid-phase peptide synthesis; Rink amide resin; DCC, DCCI, HOBt. Conditions: late stage modification step.

“^19F-Si(tBu)2-C6H4-CH2-CO-Ava--Gln-Trp-Ala-Val-NMeGly-His(3Me)-4-Am,5-MeHpA-Cpa-NH2” registered a step yield of 41%. For “^19F-Si(iPr)2-C6H4-CH2-CO-Ava--Gln-Trp-Ala-Val-Gly-His(3Me)-4-Am,5-MeHpA-Leu-NH2” the value was 30%.
